B1: Srs2-Myc13 (enzyme, UniProt Q10213 1-887)
chain: METKSSYLKFLNEEQRISVQSPHKYTQILAGPGSGKTRVLTARVAYLLQKNHIAAEDLIIATFTNKAANEIKLRIEAILGNSEASKLISGTFHSIAYKYLVKYGKHIGLSSNWLIADRNDTQAIMKRLLDSLKKAKNPIASGIRGQELTPQNALNRITKLKSNGLLVKPGMDQLSLINGLEEPPKELQSHQSVELYRLYQTSLWKNNLADFDDLLLNFILLLQKQPDCVRNIKHILIDEFQDTSKIQYFLVKLLALQNSDITIVGDPDQSIYGFRSAEIRNLNQMSEDFEGTQVLHLERNYRSAKPILELALSIISQDKSRPKKGLKSNHISSLKPHYRLFETNNKESYWIAREIKRIVGSCPELIFYNDIAILVRSSSLTRSLEHALSELGVPYRMVGVNKFFDREEIRDLIAYLRVLANKDSTSLIRVINVPPRNIGKTKIDRIIFESERRGLTFWQTLNEVKNENILLSQRNDKSFLKSLKSFLCSISKLENRYLSNGHSATLSDLLLGILSEIKYYEYLVRKNKETVEEKWENVMELVQQSDNISCIFYELDYKISTIVLLQNFLTQIALVNEEQKEGESQKVTISTLHAAKGLEWPVVFLPCLCENIIPHSRSDDLDEERRLLYVGATRAQALLYLSSFKSVTGMFADMQNSDNVQDVSPFLKGEEMKRWVMESEIVFNEKIASEIGTILGRKSYGKITNLSGIGSNANHNGTKFENLGFQCCRVLAEAELKKRERVKSVNDYNKDETNFRKHNAKRSKTDIRSWFEKKQPIDSDVEISEPSRSASIMVANKDLNDRSFETVNRIVSTRASTTNASFMSSVRQNLGRGPSTKDQVINRTLREGHQDVVQHTDLNQSNTKVASARPAGSRKRLGVRLRVSRML
B2: Ku70-GFP-HA3 (protein, UniProt O94395 1-607)
chain: MENDEQIDETENFAIGKYAILFVIEVSPSMLDPVDEFTPSSLQMALICAYQLAAQRVITNPSDIMGVLLYGTESSTGRFANQMMLLDIDPPDAERIKSLQSFEKDFQFSKEKFKPCSCQVSLSSVLYHCSVIFTTKAENFEKRLFLITDNDHPAWDATERDIILQRAKDLRDLDIQVHPVFLDPPTHSFRINIFYSDFLYIVYGRQDVSNLVNRGQAQLQHMLNMITALQKPKRAHFHLKMDLGNDVRIGVEAFILLKRLESAKTNWVYAKGERFAVAVPQSKQVSFATKKELKKDEIRRSYSYGGSSVVFGSDELNKVRSFEPPTLRIIGFRDFSTLKPWHCLKPAVFLRPKDDEIIGSGAVFSAIHKKLLASNKIGIAWFVSRPNANPCFVAMLATPGSIHIRDDFELPLGIFLVQLPTADDIRSLPPINPNPISMPSNLIETMQRILRGMELRSYQPGKYNNPSLQWHYKVLQALALDEEIPTDFVDNTLPKYKAIQKRVGEYMGDVNNIVAEYRNDISDKNGIKEEEEDQGPIVKKARIEKSGKPIFAEDDRLKQLYIEGVLDKEIKALKVSQLKDILRDRGLRVSGKKADLLDNLTNYVKKL
B3: Chk1-HA3 (enzyme, UniProt P34208 1-496)
chain: MAQKLDNFPYHIGREIGTGAFASVRLCYDDNAKIYAVKFVNKKHATSCMNAGVWARRMASEIQLHKLCNGHKNIIHFYNTAENPQWRWVVLEFAQGGDLFDKIEPDVGIDEDVAQFYFAQLMEGISFMHSKGVAHRDLKPENILLDYNGNLKISDFGFASLFSYKGKSRLLNSPVGSPPYAAPEITQQYDGSKVDVWSCGIILFALLLGNTPWDEAISNTGDYLLYKKQCERPSYHPWNLLSPGAYSIITGMLRSDPFKRYSVKHVVQHPWLTSSTPFRTKNGNCADPVALASRLMLKLRIDLDKPRLASSRASQNDSGFSMTQPAFKKNDQKELDRVEVYGALSQPVQLNKNIDVTEILEKDPSLSQFCENEGFIKRLAKKAKNFYEICPPERLTRFYSRASRETIIDHLYDSLRLLAISVTMKYVRNQTILYVNLHDKRKCLLQGVIELTNLGHNLELINFIKRNGDPLEWRKFFKNVVSSIGKPIVLTDVSQN
B4: Ku80-HA3 (protein, UniProt Q9HGM8 1-695)
chain: MSDKECTVFVLDLGKDMGTCHHGRSHSDLEWTLSYFHDELSHKFLANRKTDVVGIVGYKCDDTKNDLAEQEAYWNISVLYPIQTALFSKLQSVSQTLKPSNTMQGDLISAIVVSFDLMARHCKKNKWKKKMIVLTAARGIIDFSDYIGIAEQLLQHDVFLGVYGVDFDQEDINYSEPLKESQKKENEVRIQEFVESCHGQYCTFQQIYNNIGKPWVRKVRPVAIFRGTFSIGNRDSKDTSISIQVERYPRTRLTKPPTSSAFYENDMSKNYECLNIENSNVENKSMESDAVSTVRSYMVRDPKTNDSFEVKREDLESGYSYGRTIVPISRSDEDVLALDTIPGYEILGFIPKSSLPIYYTISDTNIIVPKDDFESKLNFSAFVQSLEREHRYALARFVSKDKGVPVLLVLMPYVEFKRHYLVDIQLPFAEDVRPYSFSEFEKLSNEEDMRQIDFAVSNYIDNMDLDSSDCGFNPPFEPENTFSMIPHRLQQAISYYANSPEGDLPQPNIYLTRYTNPPKSLLDNCILDLKLIKEKLTVNVPVKPKYSSQETAFDTGAPISEEQIEELLNSGLDEQEGEKLLVLHVSEKDPVGTFTEVLKNPFGLEDALTEMEKVIKNLIDKSKYDLALQSLQSLRLHSILEDEVERFNEYLTRLKKDVMQNNKPKENELINKIRSSGLDIILHDELTRHDNFNNI

By UniProt entry, the sequences of proteins in these tests, tags left out. Where a name states a change or a piece, a line headed by the entry shows the natural chain unless it says otherwise. Chains listed by the source or under a name are the forms on record and can include a tag or linker.
UniProt P04551: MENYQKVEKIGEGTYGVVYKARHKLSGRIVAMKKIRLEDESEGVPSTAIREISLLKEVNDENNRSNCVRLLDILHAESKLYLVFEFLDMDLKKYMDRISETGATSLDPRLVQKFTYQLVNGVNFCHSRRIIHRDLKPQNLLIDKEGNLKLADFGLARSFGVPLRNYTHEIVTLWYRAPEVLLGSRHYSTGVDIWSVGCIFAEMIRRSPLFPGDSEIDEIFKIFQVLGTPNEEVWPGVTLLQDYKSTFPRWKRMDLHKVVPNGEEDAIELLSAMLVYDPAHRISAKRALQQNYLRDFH
Cdc2.1w kinase (P04551, form named): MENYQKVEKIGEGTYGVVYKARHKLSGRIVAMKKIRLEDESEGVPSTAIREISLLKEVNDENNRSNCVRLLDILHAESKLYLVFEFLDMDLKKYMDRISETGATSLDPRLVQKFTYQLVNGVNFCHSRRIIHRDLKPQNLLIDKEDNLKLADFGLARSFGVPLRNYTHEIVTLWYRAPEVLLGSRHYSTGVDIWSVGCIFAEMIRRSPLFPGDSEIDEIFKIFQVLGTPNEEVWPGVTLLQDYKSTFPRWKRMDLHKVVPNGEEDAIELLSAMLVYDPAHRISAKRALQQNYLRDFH
UniProt P40235: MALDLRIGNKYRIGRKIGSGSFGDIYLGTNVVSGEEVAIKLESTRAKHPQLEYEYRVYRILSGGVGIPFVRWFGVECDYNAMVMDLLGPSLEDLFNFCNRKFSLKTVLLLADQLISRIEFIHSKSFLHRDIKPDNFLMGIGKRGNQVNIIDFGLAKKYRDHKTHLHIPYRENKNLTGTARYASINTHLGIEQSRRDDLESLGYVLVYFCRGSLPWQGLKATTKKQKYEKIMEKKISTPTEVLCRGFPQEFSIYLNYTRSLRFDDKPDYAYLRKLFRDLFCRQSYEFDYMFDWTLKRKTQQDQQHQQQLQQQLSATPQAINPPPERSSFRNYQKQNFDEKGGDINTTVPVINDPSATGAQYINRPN

Results are given in words; binding and its absence hold for the method and conditions named. Binding seen in cells or lysates may run through a third protein. Some results given as binding are weak or reduced against the parent protein; the word gives no strength. For some of these results: Sequences can lack the tags named with a protein.

Drawing on PMC4081076, this text covers binding for 7 molecules.

The target of one assay is Cdc2 kinase (S. pombe) (UniProt P04551). The experiment in a line: co-IP; native protein extracts (150 ul) of untreated tagged S. pombe strains incubated over night with 5 ul anti-Cdc2 antibody or an unrelated IgG, harvested with 30 ul protein A/G beads, blotted with a tag-specific antibody.
In the case of “Hhp1-HA3 (from UniProt P40235 1-365) (enzyme)”, the binding entry is recorded as “binds”.

B1: the binding result is recorded as “binds”.

Regarding B2, the binding result is “binds”.

In the case of B3, the binding entry was “binds”.

Turning to B4, the binding result was “binds”.

The next assay deals with Hhp1-GFP (S. pombe) (UniProt P40235). The experiment in a line: co-IP; GFP-Trap: Hhp1-GFP captured on GFP-nAb agarose from soluble extracts (50 mM HEPES pH 8.0, 200 mM KoAC, 20 mM NaCl, 1 mM EDTA, 0.1% Nonidet) of wild-type cells untreated or treated with 40 uM CPT for 4 h, and of untreated cdc2.1w cells; blotted with anti-GFP and anti-Cdc2.
Regarding “Cdc2.1w kinase (from UniProt P04551 1-297) (enzyme)”, the binding result is “binds”.

For “Cdc2 kinase (from UniProt P04551 1-297) (enzyme)”, the binding entry is recorded as “binds”.
